Test results as given in the supplement of paper PMC9233669.
This sample is rich in variants without activity.

Key:
[1] = test system: biotinyl-Ile-oxazolone; assay: self-aminoacylation, catalytic enhancement (BIO) (fold over background); higher = more active; k-Seq, kA / k0A0; sequences stand for … in GGGAAUGGAUCCACAUCUACGAAUUC…UUCACUGCAGACUUGACGAAGCUG
In short: (§1)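 Catalytic enhancement equals the median kA over the uncatalyzed rate, the latter read from the low-activity peak of a bimodal Gaussian fit. Values of kA came from fitting each sequence's fraction reacted to a pseudo-first-order model, with 1000 bootstraps. Reacted RNA was captured with streptavidin and quantified by triplicate qPCR and Illumina sequencing after 90 minutes at room temperature with 2–1250 μM biotinyl-aminoacyl-oxazolone and 0.43 μM mutagenized RNA pools bearing a 21-nt variable region.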

[2] = test system: biotinyl-Val-oxazolone; assay: self-aminoacylation, catalytic enhancement (BVO) (fold over background); higher = more active; k-Seq, kA / k0A0; sequences stand for … in GGGAAUGGAUCCACAUCUACGAAUUC…UUCACUGCAGACUUGACGAAGCUG
In short: as §1

[3] = test system: biotinyl-Phe-oxazolone; assay: self-aminoacylation, catalytic enhancement (BFO) (fold over background); higher = more active; k-Seq, kA / k0A0; sequences stand for … in GGGAAUGGAUCCACAUCUACGAAUUC…UUCACUGCAGACUUGACGAAGCUG
In short: as §1

[4] = test system: biotinyl-Met-oxazolone; assay: self-aminoacylation, catalytic enhancement (BMO) (fold over background); higher = more active; k-Seq, kA / k0A0; sequences stand for … in GGGAAUGGAUCCACAUCUACGAAUUC…UUCACUGCAGACUUGACGAAGCUG
In short: as §1

[5] = test system: biotinyl-Leu-oxazolone; assay: self-aminoacylation, catalytic enhancement (BLO) (fold over background); higher = more active; k-Seq, kA / k0A0; sequences stand for … in GGGAAUGGAUCCACAUCUACGAAUUC…UUCACUGCAGACUUGACGAAGCUG
In short: as §1

[6] = test system: biotinyl-Trp-oxazolone; assay: self-aminoacylation, catalytic enhancement (BWO) (fold over background); higher = more active; k-Seq, kA / k0A0; sequences stand for … in GGGAAUGGAUCCACAUCUACGAAUUC…UUCACUGCAGACUUGACGAAGCUG
In short: as §1

Sequence | self-aminoacylation [1] | self-aminoacylation [2] | self-aminoacylation [3] | self-aminoacylation [4] | self-aminoacylation [5] | self-aminoacylation [6]
AAGUUUGCUUAUAGUCGCAAC [Fam3.1 aminoacylation ribozyme variant] | 0.973 | 0.895 | 1.04 | 0.941 | 0.84 | 0.697
AAGUUUGCUUAUAUUCGCAAG [Fam3.1 aminoacylation ribozyme variant] | 0.973 | 0.987 | 0.841 | 0.952 | 0.929 | 1.13
AAGUUUGCUUGUAGUCGCAAG [Fam3.1 aminoacylation ribozyme variant] | 0.724 | 0.819 | 1.09 | 0.732 | 0.707 | 0.911
AAGUUUGGUAAUAGUUGCAAG [Fam3.1 aminoacylation ribozyme variant] | 1.19 | 0.952 | 1.46 | 1 | 0.941 | 1.07
AAGUUUGUUAACAGUCGCAAG [Fam3.1 aminoacylation ribozyme variant] | 1.09 | 0.996 | 1.11 | 0.806 | 1.03 | 0.988
AAGUUUGUUAAUAGCCGCAAG [Fam3.1 aminoacylation ribozyme variant] | 1.07 | 0.845 | 1.48 | 0.856 | 0.778 | 1.3
AAGUUUGUUAAUAGUCGCAUG [Fam3.1 aminoacylation ribozyme variant] | 1.22 | 1.18 | 1.57 | 1.6 | 1.39 | 1.41
AAGUUUGUUAUUAGUCGCAAG [Fam3.1 aminoacylation ribozyme variant] | 1.4 | 1.49 | 1.84 | 1.29 | 1.29 | 1.59
AAGUUUUCUAAUACUCGCAAG [Fam3.1 aminoacylation ribozyme variant] | 1.41 | 1.23 | 1.08 | 1.13 | 1.16 | 1.1
AAGUUUUCUAAUAGUCGUAAG [Fam3.1 aminoacylation ribozyme variant] | 1.19 | 1.26 | 2.29 | 1.16 | 1.05 | 1.48
AAGUUUUCUACUAGUCGCAAG [Fam3.1 aminoacylation ribozyme variant] | 1.99 | 1.51 | 3.09 | 1.67 | 1.79 | 1.86
AAGUUUUCUAUUAGUCGCAAG [Fam3.1 aminoacylation ribozyme variant] | 1.79 | 1.52 | 2.22 | 1.89 | 1.82 | 2.07
AAUACCCUGGUCAUCGAGUCA [Fam2.1 aminoacylation ribozyme variant] | 0.607 | 0.673 | 0.749 | 0.534 | 0.5 | 0.305
AAUCACAUAGGUCAUCGGGUG [Fam2.2 aminoacylation ribozyme variant] | 4.88 | 4.18 | 49.2 | 7.73 | 7.16 | 6.45
AAUUUUCCUAAUAGUCGCAAG [Fam3.1 aminoacylation ribozyme variant] | 1.37 | 1.13 | 0.856 | 1.44 | 1.14 | 1.09
AAUUUUGCAAAUAGUCGCAAG [Fam3.1 aminoacylation ribozyme variant] | 2.33 | 2.31 | 2.73 | 2.02 | 1.51 | 2.48
AAUUUUGCUAAUAGACGCAAG [Fam3.1 aminoacylation ribozyme variant] | 1.25 | 1.02 | 1.6 | 0.927 | 0.814 | 0.904
ACACACUUCAAGCAAUCGGCC [Fam1B.1 aminoacylation ribozyme variant] | 2.7 | 2.57 | 4 | 2.21 | 2.54 | 6.35
ACACACUUCAAGCAGUCGGUC [Fam1B.1 aminoacylation ribozyme variant] | 1.36 | 1.09 | 1.46 | 1.35 | 1.18 | 1.01
ACACACUUCGAGCAAUCGGUC [Fam1B.1 aminoacylation ribozyme variant] | 1.39 | 1.58 | 1.51 | 1.35 | 1.74 | 1.38
ACACUUCAAACAAUCGGUCUG [Fam1A.1 aminoacylation ribozyme variant] | 1.7 | 1.43 | 75.9 | 1.57 | 2.16 | 33.3
ACGUUUGCUAAUAGUAGCAAG [Fam3.1 aminoacylation ribozyme variant] | 1.62 | 1.36 | 1.86 | 1.47 | 1.46 | 1.98
ACGUUUGCUAAUAGUCGCUAG [Fam3.1 aminoacylation ribozyme variant] | 1.28 | 1.24 | 1.69 | 1.19 | 1.28 | 1.06
ACGUUUGCUAGUAGUCGCAAG [Fam3.1 aminoacylation ribozyme variant] | 1.28 | 1.16 | 1.61 | 1 | 0.784 | 1.29
ACUACCCUGGUCAUCGAAUGA [Fam2.1 aminoacylation ribozyme variant] | 1.15 | 1.27 | 0.648 | 1.63 | 0.952 | 0.479
ACUCACCUAGUUCAUCGGGUG [Fam2.2 aminoacylation ribozyme variant] | 2.87 | 3.36 | 19.7 | 3.46 | 3.86 | 3.85

Sequence | self-aminoacylation [1] | self-aminoacylation [2] | self-aminoacylation [3] | self-aminoacylation [4] | self-aminoacylation [5] | self-aminoacylation [6]
AGGUUUGCUAAUAGUCGCACG [Fam3.1 aminoacylation ribozyme variant] | 1.32 | 1.23 | 1.86 | 1.66 | 1.75 | 1.49
AGUACCUUGGUCAUCGAGUGA [Fam2.1 aminoacylation ribozyme variant] | 4.3 | 4.07 | 19 | 6.27 | 6.37 | 8.17
AGUCACCUAGGUCCUCGGGUG [Fam2.2 aminoacylation ribozyme variant] | 5.66 | 4.64 | 37.5 | 6.34 | 6.54 | 9.19
AUAACCCUGCUCAUCGAGUGA [Fam2.1 aminoacylation ribozyme variant] | 1.25 | 1.53 | 1.63 | 1.48 | 1.35 | 1.69
AUAACCCUGGUCACCGAGUGA [Fam2.1 aminoacylation ribozyme variant] | 4.78 | 4.06 | 44 | 8.82 | 9.68 | 10.2
AUAACCCUGGUCAUCGAUUGA [Fam2.1 aminoacylation ribozyme variant] | 0.94 | 0.974 | 0.646 | 0.883 | 1.02 | 0.392
AUACACCUAGGUCAUCGGGAG [Fam2.2 aminoacylation ribozyme variant] | 1.28 | 0.949 | 0.298 | 0.86 | 1.65 | 1.09
AUACACCUGGGUCAUCGGGUG [Fam2.2 aminoacylation ribozyme variant] | 3.31 | 3.54 | 14.8 | 4.39 | 4.41 | 3.69
AUACUUGAAACAAUCGGUCUG [Fam1A.1 aminoacylation ribozyme variant] | 0.932 | 0.82 | 1.02 | 0.912 | 0.947 | 0.899
AUACUUUAAACAAUCGGUCUG [Fam1A.1 aminoacylation ribozyme variant] | 0.907 | 0.893 | 1.16 | 0.95 | 0.715 | 0.872
AUCCACAUAGGUCAUCGGGUG [Fam2.2 aminoacylation ribozyme variant] | 5.82 | 6.77 | 78.8 | 10.1 | 12.1 | 8.91
AUCCACCUAAGUCAUCGGGUG [Fam2.2 aminoacylation ribozyme variant] | 6.14 | 7.25 | 90.6 | 11.3 | 14.4 | 9.42
AUCCACCUAGGUCAUCUGGUG [Fam2.2 aminoacylation ribozyme variant] | 2.26 | 2.28 | 26.4 | 2.77 | 3.74 | 2.77
AUGACCCUGGUCAUCGACUGA [Fam2.1 aminoacylation ribozyme variant] | 0.662 | 0.798 | 0.57 | 0.657 | 0.763 | 0.76
AUGAGCCUGGUCAUCGAGUGA [Fam2.1 aminoacylation ribozyme variant] | 3.82 | 3.71 | 31.3 | 5.66 | 5.69 | 6.33
AUGCACCUAGGUCAUAGGGUG [Fam2.2 aminoacylation ribozyme variant] | 1.76 | 1.53 | 1.88 | 1.46 | 1.73 | 1.75
AUGUACCUAGGUCAUCGGGUG [Fam2.2 aminoacylation ribozyme variant] | 3.62 | 3.08 | 34 | 5.49 | 5.37 | 5.8
AUUAACCUAAGUCAUCGGGUG [Fam2.2 aminoacylation ribozyme variant] | 4.9 | 4.74 | 63.5 | 8.41 | 12.1 | 7.95
AUUACACUGGACAUCGAGUGA [Fam2.1 aminoacylation ribozyme variant] | 3.23 | 2.87 | 14.9 | 5.83 | 6.11 | 6.45
AUUACCCUCGUCAUCUAGUGA [Fam2.1 aminoacylation ribozyme variant] | 2.3 | 2.7 | 9.86 | 3.26 | 3.57 | 4.43
AUUACCCUGAUCUUCGAGUGA [Fam2.1 aminoacylation ribozyme variant] | 2.56 | 2.74 | 15.7 | 4.57 | 5.04 | 6.11
AUUACCCUGCUCAUCAAGUGA [Fam2.1 aminoacylation ribozyme variant] | 0.78 | 0.772 | 0.6 | 0.613 | 0.571 | 0.924
AUUACCCUGCUCAUCGAGUGC [Fam2.1 aminoacylation ribozyme variant] | 0.616 | 0.835 | 1.13 | 0.666 | 0.555 | 0.392
AUUACCCUGGACAUCGAGUCA [Fam2.1 aminoacylation ribozyme variant] | 0.753 | 0.672 | 0.367 | 0.865 | 0.637 | 0.376
AUUACCCUGGACAUCGAGUGU [Fam2.1 aminoacylation ribozyme variant] | 1.51 | 2.66 | 5.95 | 3.35 | 3.35 | 4.38
